From paper PMC7573076
Results are given in words; binding and its absence hold for the method and conditions named. In cells and extracts the contact can be indirect. A yes stands for co-enrichment or nearness to the bait. Other partners may have been found. Tags and fused reporters may be left off the sequences shown.

Protein sequences, listed by entry. Tags and fused reporters are not part of them. Residues count along the entry.
UniProt Q90593, residues 17-652: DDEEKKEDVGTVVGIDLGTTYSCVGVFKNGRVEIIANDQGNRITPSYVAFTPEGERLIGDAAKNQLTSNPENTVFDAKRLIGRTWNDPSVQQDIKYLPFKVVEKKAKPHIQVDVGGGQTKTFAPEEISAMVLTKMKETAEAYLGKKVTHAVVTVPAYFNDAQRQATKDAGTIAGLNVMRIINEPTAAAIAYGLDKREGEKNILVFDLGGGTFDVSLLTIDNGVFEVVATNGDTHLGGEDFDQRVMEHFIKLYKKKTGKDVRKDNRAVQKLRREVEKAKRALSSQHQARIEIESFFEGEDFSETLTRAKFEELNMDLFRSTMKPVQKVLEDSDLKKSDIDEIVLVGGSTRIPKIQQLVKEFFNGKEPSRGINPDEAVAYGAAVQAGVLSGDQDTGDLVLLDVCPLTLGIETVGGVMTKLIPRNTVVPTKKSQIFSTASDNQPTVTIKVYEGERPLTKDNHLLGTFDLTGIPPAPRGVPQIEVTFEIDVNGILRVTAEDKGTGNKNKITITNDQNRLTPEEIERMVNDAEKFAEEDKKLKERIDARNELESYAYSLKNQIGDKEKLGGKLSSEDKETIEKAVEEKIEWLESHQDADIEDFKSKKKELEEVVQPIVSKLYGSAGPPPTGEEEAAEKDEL
UniProt P08106: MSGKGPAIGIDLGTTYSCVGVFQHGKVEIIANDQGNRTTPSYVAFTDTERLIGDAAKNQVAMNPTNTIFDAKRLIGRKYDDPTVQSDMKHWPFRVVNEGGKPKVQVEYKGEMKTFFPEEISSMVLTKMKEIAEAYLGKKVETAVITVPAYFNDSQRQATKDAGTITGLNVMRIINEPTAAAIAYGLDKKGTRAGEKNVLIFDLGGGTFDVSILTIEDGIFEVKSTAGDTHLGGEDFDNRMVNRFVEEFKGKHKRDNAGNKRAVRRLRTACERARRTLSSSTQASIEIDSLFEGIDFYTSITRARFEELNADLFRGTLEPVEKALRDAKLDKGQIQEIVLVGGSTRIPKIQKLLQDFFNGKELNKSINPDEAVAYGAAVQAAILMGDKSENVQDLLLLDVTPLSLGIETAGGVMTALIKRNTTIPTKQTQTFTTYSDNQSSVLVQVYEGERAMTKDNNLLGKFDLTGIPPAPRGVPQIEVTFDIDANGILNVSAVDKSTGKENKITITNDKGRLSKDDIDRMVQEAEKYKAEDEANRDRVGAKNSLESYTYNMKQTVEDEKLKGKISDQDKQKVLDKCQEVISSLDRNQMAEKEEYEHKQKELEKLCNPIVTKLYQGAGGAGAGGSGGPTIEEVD
UniProt O73885: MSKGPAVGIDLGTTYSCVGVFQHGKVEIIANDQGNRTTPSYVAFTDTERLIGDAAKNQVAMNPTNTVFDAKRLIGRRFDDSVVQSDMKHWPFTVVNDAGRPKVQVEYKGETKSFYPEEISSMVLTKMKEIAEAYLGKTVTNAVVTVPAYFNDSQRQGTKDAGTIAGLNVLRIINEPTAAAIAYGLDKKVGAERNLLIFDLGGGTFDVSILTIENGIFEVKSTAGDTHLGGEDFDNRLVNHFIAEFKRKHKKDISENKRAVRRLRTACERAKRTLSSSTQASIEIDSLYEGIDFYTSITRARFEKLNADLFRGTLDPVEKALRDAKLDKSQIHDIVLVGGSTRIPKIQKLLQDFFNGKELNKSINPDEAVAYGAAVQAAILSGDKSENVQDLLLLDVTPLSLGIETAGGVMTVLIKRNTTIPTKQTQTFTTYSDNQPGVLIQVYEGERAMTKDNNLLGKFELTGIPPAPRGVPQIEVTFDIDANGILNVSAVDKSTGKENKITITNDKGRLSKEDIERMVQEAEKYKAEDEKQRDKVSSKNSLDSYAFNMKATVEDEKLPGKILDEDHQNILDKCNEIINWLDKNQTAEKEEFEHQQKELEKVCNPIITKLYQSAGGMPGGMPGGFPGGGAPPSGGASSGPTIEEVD
UniProt P51913: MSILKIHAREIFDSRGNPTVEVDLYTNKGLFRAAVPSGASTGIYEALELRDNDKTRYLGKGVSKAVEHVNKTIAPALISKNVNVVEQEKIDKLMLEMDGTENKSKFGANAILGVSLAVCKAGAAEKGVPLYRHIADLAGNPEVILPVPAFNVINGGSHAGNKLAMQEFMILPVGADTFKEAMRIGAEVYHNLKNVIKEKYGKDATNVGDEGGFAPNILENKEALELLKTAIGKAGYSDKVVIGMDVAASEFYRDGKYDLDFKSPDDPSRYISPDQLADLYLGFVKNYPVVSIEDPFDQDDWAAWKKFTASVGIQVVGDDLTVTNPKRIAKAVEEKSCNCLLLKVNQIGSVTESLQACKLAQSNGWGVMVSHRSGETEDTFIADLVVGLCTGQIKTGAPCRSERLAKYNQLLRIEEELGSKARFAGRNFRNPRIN
UniProt P00548: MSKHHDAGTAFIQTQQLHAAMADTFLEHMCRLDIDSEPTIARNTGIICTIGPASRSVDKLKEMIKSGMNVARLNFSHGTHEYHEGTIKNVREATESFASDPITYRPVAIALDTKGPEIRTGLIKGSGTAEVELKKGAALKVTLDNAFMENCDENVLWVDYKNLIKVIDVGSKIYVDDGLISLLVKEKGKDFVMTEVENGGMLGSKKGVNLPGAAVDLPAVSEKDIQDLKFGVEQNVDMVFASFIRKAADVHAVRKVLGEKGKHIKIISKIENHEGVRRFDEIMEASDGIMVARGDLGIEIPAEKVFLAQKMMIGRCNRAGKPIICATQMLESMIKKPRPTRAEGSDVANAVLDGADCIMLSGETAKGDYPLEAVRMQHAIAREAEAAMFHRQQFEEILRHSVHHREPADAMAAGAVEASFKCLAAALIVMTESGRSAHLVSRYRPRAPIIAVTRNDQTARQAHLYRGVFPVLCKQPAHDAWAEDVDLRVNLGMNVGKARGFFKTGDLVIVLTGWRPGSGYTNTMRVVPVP
UniProt F1NWX0: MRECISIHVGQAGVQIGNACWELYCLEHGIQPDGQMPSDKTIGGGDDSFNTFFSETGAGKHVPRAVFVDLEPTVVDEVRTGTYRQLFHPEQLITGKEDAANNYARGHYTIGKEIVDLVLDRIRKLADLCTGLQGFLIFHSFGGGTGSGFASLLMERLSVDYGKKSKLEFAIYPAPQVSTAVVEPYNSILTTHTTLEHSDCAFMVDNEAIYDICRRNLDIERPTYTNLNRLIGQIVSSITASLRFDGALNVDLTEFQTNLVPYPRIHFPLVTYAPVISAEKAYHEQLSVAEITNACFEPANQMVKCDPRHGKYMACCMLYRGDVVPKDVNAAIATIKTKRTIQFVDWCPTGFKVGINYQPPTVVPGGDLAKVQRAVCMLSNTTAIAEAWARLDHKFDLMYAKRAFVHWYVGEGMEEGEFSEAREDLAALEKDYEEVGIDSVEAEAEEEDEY
UniProt Q8JFP1: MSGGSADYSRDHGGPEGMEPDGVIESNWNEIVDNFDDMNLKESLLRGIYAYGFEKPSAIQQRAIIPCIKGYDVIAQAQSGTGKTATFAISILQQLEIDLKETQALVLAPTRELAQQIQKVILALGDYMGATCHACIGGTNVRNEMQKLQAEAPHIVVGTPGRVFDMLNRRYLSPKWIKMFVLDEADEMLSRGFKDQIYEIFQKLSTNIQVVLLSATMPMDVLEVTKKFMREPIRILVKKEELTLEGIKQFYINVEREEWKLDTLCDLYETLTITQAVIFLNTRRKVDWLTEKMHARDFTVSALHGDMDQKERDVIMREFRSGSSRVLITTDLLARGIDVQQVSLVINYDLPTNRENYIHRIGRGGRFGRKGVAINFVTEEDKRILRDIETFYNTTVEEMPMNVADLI

B1: chicken PRDX1 (protein, UniProt P0CB50 1-199)
chain: MSSGKAFIGKPAPDFTATAVMPDGQFKDIKLSDYRGKYVVFFFYPLDFTFVCPTEIIAYSDRADEFKKINCEIIGASVDSHFCHLAWINTPKKQGGLGTMKIPLVSDTKRVIAKDYGVLKEDEGIAYRGLFIIDEKGILRQITINDLPVGRSVDETLRLVQAFQFTDKHGEVCPAGWKPGSDTIKPDVQKSKEYFSKQK
B2: chicken NCL (protein, UniProt P15771 1-694)
chain: MVKLAKTPKNQMKQKKMAPPPKKVEESEEEESSDLEESSGEEVMVPPKKQQKAAVTPAKKAATPAKKAATPAKKAVTPAKKAVATPAKKAVAPSPKKAAVVGKGAKNGKNAKKEESEEEDEDDEDDEEDEDEEEESDEEEEPAVPVKPAAKKSAAAVPAKKPAVVPAKQESEEEEEEDDEEEDEEDDESEDEAMDTTPAPVKKPTPAKATPAKAKAESEDEEDEEDEDEDEEDEDDEEEDEEESEDEKPVKEAPGKRKKEMANKSAPEAKKKKTETPASAFSLFVKNLTPTKDYEELRTAIKEFFGKKNLQVSEVRIGSSKRFGYVDFLSAEDMDKALQLNGKKLMGLEIKLEKAKSKESLKENKKERDARTLFVKNLPYRVTEDEMKNVFENALEVRLVLNKEGSSKGMAYIEFKTEAEAEKALEEKQGTEVDGRAMVIDYTGEKSQQESQKGGGERESKTLIVNNLSYAASEETLQELFKKATSIKMPQNNQGRPKGYAFVEFPTAEDAKEALNSCNNTEIEGRAIRLEFSSPSWQKGNMNARGGFNQQSKTLFVRGLSEDTTEETLRESFEGSISARIVTDRDTGSSKGFGFVDFSSPEDAKAAKEAMEDGEIDGNKVTLDFAKPKGEFQRGGGFGGGFGGRGGRGGRGGGRGGFGGRGGGRGFGGRGGGFRGGRGGGGDHKPQGKKIKFE
B3: chicken LRRC59 (protein, UniProt Q5F334 1-339)
chain: MARGGGKSGSLKDKLDGNELDLSLCGLSEVPVRELAALPKATVLDLSCNSLVSLPSDFCSLTHLVKLDLSKNRLQQLPVDFGRLVSLQHLDLLNNRLVTLPVSFAQLKLSLHHSPVEILSRLLGTPSSLLVFHSFHSWENQNLKWLDLKDNPLDPVLAKVAGDCLDEKQCKQAAVRVLQHMKVIQSEQDRERQRKLQAEREMEKKREAEQRAREAQERELRKREKAEEKERRRREYDAQRAAKQEMEKKTKKETVQTRKLASSSRPPQPARHKHSWSRSVLRALLLVLLCILCTLAVCKLTELQHQPLCVSVNTLYEDVVAAVQNHKTLQNMLQQNSQQ

What follows are molecules tested against T1, GST–chMDA5-N (chicken) (UniProt D9N195) (assay: affinity purification with mass spectrometry; DF1 cells transfected with pCDNA3.1-GST–chMDA5-N or empty GST vector, lysed 24 h later in RIPA buffer at 4°C, glutathione–agarose beads, elution with reduced glutathione, LC–MS/MS of the eluate and of differential silver-stained bands; proteins of the control removed).
T1 sequence: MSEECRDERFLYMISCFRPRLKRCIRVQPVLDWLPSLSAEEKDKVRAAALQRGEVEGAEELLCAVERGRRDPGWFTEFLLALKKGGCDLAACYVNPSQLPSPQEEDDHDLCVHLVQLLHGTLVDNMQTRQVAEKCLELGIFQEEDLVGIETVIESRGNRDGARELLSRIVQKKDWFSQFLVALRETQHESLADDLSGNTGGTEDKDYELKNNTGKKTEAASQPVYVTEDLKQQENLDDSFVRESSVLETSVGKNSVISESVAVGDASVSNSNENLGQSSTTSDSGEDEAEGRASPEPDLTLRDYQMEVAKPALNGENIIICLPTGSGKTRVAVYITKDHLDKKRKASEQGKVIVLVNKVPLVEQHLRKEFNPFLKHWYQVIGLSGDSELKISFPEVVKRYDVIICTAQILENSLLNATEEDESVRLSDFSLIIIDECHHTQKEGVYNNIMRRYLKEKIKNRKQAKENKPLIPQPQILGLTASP

Molecule | binding
chicken HSPA5 (from UniProt Q90593 17-652) | binds
chicken TUBB4B | binds
chicken IFIT5 | binds
chicken TUBA1A1 | binds
chicken hnRNPA2B1 | binds
chicken RBM39 | binds
chicken FXR1 | binds
chicken HSP70 (from UniProt P08106 1-634) | binds
chicken HSPA8 (from UniProt O73885 1-646) | binds
chicken SRSF3 | binds
chicken RBM25 | binds
chicken EEF1A1 | binds
chicken ENO1 (from UniProt P51913 1-434) | binds
chicken PKM (from UniProt P00548 1-530) | binds
chicken TUBA3E (from UniProt F1NWX0 1-450) | binds
chicken DDX5 | binds
chicken RUVBL3 | binds
chicken hnRNPH2 | binds
chicken EIF4A2 (from UniProt Q8JFP1 1-407) | binds
chicken PABPC1 | binds
chicken ARF1 | binds
B1 | binds
B2 | binds
B3 | binds
